Literature values as cited in US20030203890A1 (priority 2001, published 2003).
At least one compound was matched to its structure with a doubt left.

What was measured:
[1] = system: PC12 cells or sensory neurons from dorsal root ganglia; conditions: cited from earlier work
sciatic nerve = conditions: rats with crushed sciatic nerves; Gold et al. 1994/1995, Steiner et al. 1997; cited from earlier work

SMILES	neurotrophic effects in vitro ([1]; PC12 cells and chick sensory neurons, Steiner et al. 1997)	nerve regeneration and morphological/functional recovery following sciatic nerve crush (sciatic nerve)	promotion of process (neurite) extension, potency ([1]; PC12 cells or sensory neurons from dorsal root ganglia, Lyons et al. 1994)
CO[C@H]1C[C@@H]2CC[C@@H](C)[C@@](O)(O2)C(=O)C(=O)N2CCCC[C@H]2C(=O)O[C@H]([C@H](C)C[C@@H]2CC[C@@H](O)[C@H](OC)C2)CC(=O)[C@H](C)/C=C(\C)[C@@H](O)[C@@H](OC)C(=O)[C@H](C)C[C@H](C)/C=C/C=C/C=C/1C [rapamycin]	potent neurotrophic effects	–	–
C=CC[C@@H]1/C=C(\C)C[C@H](C)C[C@H](OC)[C@H]2O[C@@](O)(C(=O)C(=O)N3CCCC[C@H]3C(=O)O[C@H](/C(C)=C/[C@@H]3CC[C@@H](O)[C@H](OC)C3)[C@H](C)[C@@H](O)CC1=O)[C@H](C)C[C@@H]2OC [FK506, reference compound]	–	accelerated nerve regeneration and functional recovery	subnanomolar potency
